Assay results published in US20010036944A1, “Certain benzothiazine dioxide endothelin antagonists and processes for their preparation” (priority 1997, published 2001).
For at least one compound, name, drawing or mass did not settle the structure.

Test system: ETA, rabbit femoral artery
Assay: Antagonism of ET-1 stimulated vasoconstriction (VERAA) in the rabbit femoral artery (ETA)
Source text: In Vitro Antagonism of ET-1 Stimulated Vasoconstriction (VERAA) in the Rabbit Femoral Arterv (ETA) and Sarafotoxin 6C Stimulated Vasoconstriction in the Rabbit Pulmonarv Artery (ETB)
Male New Zealand rabbits were killed by cervical dislocation and exsanguination. Femoral and pulmonary arteries were isolated, cleaned of connective tissue, and cut into 4mm rings. The endothelium was denuded by placing the rings over hypodermic tubing (32 gauge for femoral rings and 28 gauge for pulmonary rings, Small Parts, Inc., Miami, Fla.) and gently rolling them. Denuded rings were mounted in 20 mL organ baths containing Krebsbicarbonate buffer (composition in mM: NaCl, 118.2; NaHCO3, 24.8; KCl, 4.6; MgSO4 7H2O, 1.2; KH2PO4, 1.2; CaCl2 2H2O; CaNa2 EDTA, 0.026;, dextrose, 10.0), that was maintained at 37° C. and gassed continuously with 5% CO2 in oxygen (pH 7.4). Resting tension was adjusted to 3.0 g for femoral and 4.0 g pulmonary arteries; the rings were left for 90 minutes to equilibrate. Vascular rings were tested for lack of functional endothelium (ie, lack of an endotheliumdependent relaxation response to carbachol ([…]) in norepinephrine ([…]) contracted rings. Agonist peptides, ET-1 -(femoral), and S6c (pulmonary), were cumulatively added at 10-minute intervals. The ET antagonists were added 30 minutes prior to adding the agonist.

For `COc1cc(OC)cc(C2=C(C(=O)O)N(c3ccccc3Br)S(=O)(=O)c3ccccc32)c1` [Example 3, 2-(2-Bromophenyl)-4-(3,5-dimethoxy-phenyl)-1,1-dioxo-1,2-dihydro-1 λ^6-benzo[e][1,2]thiazine-3-carboxylic acid], the “VERAA (pA2)” value was 6.8.
